This note sets out measurements from patent US5006448A, “Photographic material and process” (Eastman Kodak Company, priority 1989, dated 1991).

Series [1] in a line: Example 1 two-layer color photographic element: causer gamma, acutance and interimage effect of DIR compound. The settings on record: Table I; for CMT16mm acutance: acutance of layer 1, spatial frequencies 15 to 80 cycle per mm; for Gamma "causer" / Gamma "receiver": interimage effect, Wratten 12 (minus blue) exposure; for Gamma "causer": layer 1, Wratten 99 (green) exposure, DIR coverage as coated (mg/m^2). On the procedure:
Eight color photographic elements (coatings numbered 1-8 in Table I) were prepared having the following schematic layer structure and using silver bromoiodide emulsions containing 6.4 mole % iodide (numerical values denote coating coverages in mg/m^2 and the silver halide values are for equivalent weights of silver):
The dye-forming couplers IC-1 and IC-2 were each dispersed in half their weight of di-n-butyl phthalate, the dye forming coupler IC-3 was dispersed in half its weight of tri-cresyl phosphate and the DIR compounds were each dispersed in twice their weight of diethyl lauramide.
(§1) For evaluation of the DIR coupler effect on "causer" layer gamma and sharpness, the samples were exposed through a graduated-density test object and a Kodak Wratten 99 (green) filter. This exposed photographic layer 1.
(§2) For interimage evaluation, the samples were exposed through a graduated-density test object and a Kodak Wratten 12 (minus blue) filter. This exposed both layers 1 and 2.
(§3) Sharpness was evaluated by calculating CMT acutance values for l6mm film or by calculating AMT acutance values for a Disc type film or for a 35 mm film.
Calculations employed the following formulas in which the cascaded area under the system modulation transfer curve is shown in equation (21.104) on page 629 of The Theory of the Photographic Process, 4th edition, 1977, edited by T. H. James:
(§4) where M=11.8 for a l6mm film, and M'=3.8 for a 35 mm film or 11.5 for a DISC type film.
The photographic materials were then processed at 38° C. as follows:
The color developer composition was:
The oxidized color developing agent generated by development of exposed silver reacts with adjacent dye image-forming compounds and DIR compound, if present, to form dyes and to release inhibitor (or inhibitor precursor) in photographic layer 1. The development inhibiting effects of inhibitor released from the DIR compound were assessed by monitoring the gamma of photographic layer 1. The sharpness effects of the inhibitor released from the DIR compound were assessed by monitoring the acutance of photographic layer 1. Higher acutance values indicate greater sharpness in the processed film.
The interimage effects of the inhibitor released from the DIR compound were assessed by monitoring the ratio of the gammas of photographic layer 1 (causer of interimage effect) and photographic layer 2 (receiver of interimage effect). The larger the gamma ratio, the larger the interimage effect (the degree of color correction) in the film.

Series [2] is described as follows: Example 3 photographic element with IC-2 in layer 1 and IC-3 in layer 2. The settings on record: Table III; for Gamma "causer" / Gamma "receiver": interimage effect; for Disc sys AMT acutance: spatial frequencies 2. to 30 cycles per mm. The protocol:
as §1, §2, §3, §4
Three additional photographic elements (Coating Nos. 12-14 of Table III) were prepared in a manner similar to that described in Example 1 except that different dye-forming couplers were used. In this Example, photographic layer 1 incorporated IC-2 at 1300 mg/m^2 and photographic layer 2 incorporated IC-3 at 650 mg/m^2. These elements were exposed and processed as described in Example 1.

The nature of series [3]: Example 5 photographic element: causer gamma Gc. The settings on record: Table V discussion. On the procedure:
Four additional photographic elements (a control coating 15 and test coatings (16-18) were prepared having the following schematic layer structure and using silver bromoiodide emulsions containing 6.4 mole % iodide (numerical values denote coating coverages in mg/m^2 and the silver halide values are for equivalent weights of silver):
Film strips were exposed through a graduated-density test object and a Kodak Wratten 12 (minus blue) filter and then processed as in Example 1.

For `CCCCCCCCCCCCCCOc1ccccc1NC(=O)c1cc(Sc2nnnn2-c2ccccc2SC)c2ccccc2c1O` [Compound D-1], in series [1], the CMT16mm acutance stood at 97.4, the “Gamma "causer" / Gamma "receiver"” value was 0.55 and the “Gamma "causer"” value is on record as 0.44.

As to `CCCCCCCCCCCCCCOc1ccccc1NC(=O)c1cc(Oc2ccc([N+](=O)[O-])cc2CN(C(=O)Sc2nnnn2-c2ccccc2SC)C(C)C)c2ccccc2c1O` [Compound D-2], in series [1], the CMT16mm acutance amounted to 100.5, the “Gamma "causer" / Gamma "receiver"” value turned out to be 1.04 and the “Gamma "causer"” value worked out at 0.55.

Consider `CCCCSCCCOc1ccc(-c2nnn(C(C(=O)Nc3cc(NC(=O)CCCCOc4ccc(C(C)(C)CC)cc4C(C)(C)CC)ccc3Cl)C(=O)C(C)(C)C)n2)cc1` [Compound D-104], for which, in series [2], the “Gamma "causer"” value came to 1.05, the “Gamma "causer" / Gamma "receiver"” value amounted to 0.94 and the “Disc sys AMT acutance” value is given as 87.0.

With `CCCCCCCCCCCCCCOc1ccccc1NC(=O)c1cc(Sc2nnnn2-c2ccccc2)c2ccccc2c1O` [DIR Compound A], in series [1], the CMT16mm acutance is given as 96.2, the “Gamma "causer" / Gamma "receiver"” value was 0.77 and the “Gamma "causer"” value is listed as 0.57.

On to `CCCCCCCCCCCCCCOc1ccccc1NC(=O)c1cc(Sc2nnnn2-c2ccc(OCC)cc2)c2ccccc2c1O` [DIR Compound B], for which, in series [1], the CMT16mm acutance turned out to be 96.2, the “Gamma "causer" / Gamma "receiver"” value was 0.52 and the “Gamma "causer"” value worked out at 0.61.

On to `CCCCCCCCCCCCCCOc1ccccc1NC(=O)c1cc(Sc2nnnn2Cc2ccc(OC)cc2)c2ccccc2c1O` [DIR Compound C], for which, in series [1], the CMT16mm acutance came out at 95.2, the “Gamma "causer" / Gamma "receiver"” value is 0.41 and the “Gamma "causer"” value amounted to 0.47.

With `CCCCCCCCCCCCCCOc1ccccc1NC(=O)c1cc(Oc2ccc([N+](=O)[O-])cc2CN(C(=O)Sc2nnnn2-c2ccccc2)C(C)C)c2ccccc2c1O` [DIR Compound D], in series [1], the CMT16mm acutance is 99.9, the “Gamma "causer" / Gamma "receiver"” value stood at 1.41 and the “Gamma "causer"” value came out at 0.57.

For the molecule `CCCCCCCCCCCCCCOc1ccccc1NC(=O)c1cc(Oc2ccc([N+](=O)[O-])cc2CN(C(=O)Sc2nnnn2-c2ccc(OCC)cc2)C(C)C)c2ccccc2c1O` [DIR Compound E], in series [1], the CMT16mm acutance came out at 98.4, the “Gamma "causer" / Gamma "receiver"” value is given as 0.83 and the “Gamma "causer"” value was determined as 0.59.

Consider `CCCCCCCCOc1ccc(-c2nnn(C(C(=O)Nc3cc(NC(=O)CCCCOc4ccc(C(C)(C)CC)cc4C(C)(C)CC)ccc3Cl)C(=O)C(C)(C)C)n2)cc1` (stereo not shown) [DIR Compound G], for which, in series [2], the “Gamma "causer"” value was 1.54, the “Gamma "causer" / Gamma "receiver"” value is on record as 1.02 and the “Disc sys AMT acutance” value is on record as 85.2.

In the case of `CCCCCCCCCCCCOc1ccc(C(=O)C(C(=O)Nc2cc(C(F)(F)F)ccc2Cl)n2nnc(CCCCCCCC)n2)cc1` (stereo not shown) [DIR Compound H], the “suppression of "causer" gamma (in words)” value in series [3] is “ineffective”.
